# Data: the supplement of paper PMC12067093, “Discovery and optimisation of a covalent ligand for TRIM25 and its application to targeted protein ubiquitination” (Chemical Science, 2025)
# The chains behind the UniProt entries cited, without tags or fusion partners. Where a name states a change or a piece, a line headed by the entry shows the natural chain unless it says otherwise.
# UniProt P20585: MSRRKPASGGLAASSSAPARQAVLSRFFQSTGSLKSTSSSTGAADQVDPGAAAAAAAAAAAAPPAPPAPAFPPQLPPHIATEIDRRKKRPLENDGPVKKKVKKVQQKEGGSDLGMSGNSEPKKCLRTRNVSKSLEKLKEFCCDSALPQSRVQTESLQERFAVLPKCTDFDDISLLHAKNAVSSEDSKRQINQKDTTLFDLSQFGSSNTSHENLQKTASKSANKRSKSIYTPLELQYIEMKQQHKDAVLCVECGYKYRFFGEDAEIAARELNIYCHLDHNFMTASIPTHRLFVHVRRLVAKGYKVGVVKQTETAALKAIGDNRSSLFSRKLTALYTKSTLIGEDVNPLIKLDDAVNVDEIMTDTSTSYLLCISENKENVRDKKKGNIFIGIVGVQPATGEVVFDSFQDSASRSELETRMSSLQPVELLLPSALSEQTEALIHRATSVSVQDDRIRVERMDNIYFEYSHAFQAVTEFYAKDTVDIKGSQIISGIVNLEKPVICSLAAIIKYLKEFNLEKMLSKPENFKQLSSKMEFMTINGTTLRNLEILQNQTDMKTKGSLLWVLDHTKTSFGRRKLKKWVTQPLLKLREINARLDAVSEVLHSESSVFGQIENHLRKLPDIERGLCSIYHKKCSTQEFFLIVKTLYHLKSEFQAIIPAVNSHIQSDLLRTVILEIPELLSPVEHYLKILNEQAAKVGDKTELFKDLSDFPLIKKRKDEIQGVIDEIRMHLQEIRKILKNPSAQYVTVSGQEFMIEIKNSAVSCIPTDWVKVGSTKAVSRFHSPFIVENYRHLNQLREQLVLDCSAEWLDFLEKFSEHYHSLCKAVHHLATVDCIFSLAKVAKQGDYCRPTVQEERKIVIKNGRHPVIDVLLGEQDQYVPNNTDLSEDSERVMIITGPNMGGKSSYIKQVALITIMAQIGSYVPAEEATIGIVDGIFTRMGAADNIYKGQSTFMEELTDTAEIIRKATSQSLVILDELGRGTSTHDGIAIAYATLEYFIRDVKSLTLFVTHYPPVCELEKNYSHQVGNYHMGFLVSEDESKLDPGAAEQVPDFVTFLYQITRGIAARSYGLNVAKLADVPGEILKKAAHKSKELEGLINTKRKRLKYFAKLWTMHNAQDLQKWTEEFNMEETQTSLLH
# The other results are listed elsewhere or left out.
# Target: MSH3_P20585_1015_SLTLFVTHYPPVCELEK (UniProt P20585)
# Experiment: probe-labelled cysteine peptide fold change vs DMSO (competition) (log2 fold change); higher = less target engagement (more negative = stronger competition)
# Settings: THP-1, incubation time: 4 h
# 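Further: competitive profiling in live THP-1 cells: cysteine peptides tagged with an iodoacetamide desthiobiotin (IA-DTB) probe, intensity after compound treatment relative to DMSO-treated cells.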
compound,measurement,setting,value
Cc1cc(C(=O)N2CCCN(C(=O)CCl)CC2)ccc1-c1ccccc1 [compound 10],probe-labelled cysteine peptide fold change,10 µM,0.185
same,probe-labelled cysteine peptide fold change,50 µM,0.331
